The target in one assay is T1, POPDC2-Myc (mouse) (UniProt Q9ES82).
T1 sequence: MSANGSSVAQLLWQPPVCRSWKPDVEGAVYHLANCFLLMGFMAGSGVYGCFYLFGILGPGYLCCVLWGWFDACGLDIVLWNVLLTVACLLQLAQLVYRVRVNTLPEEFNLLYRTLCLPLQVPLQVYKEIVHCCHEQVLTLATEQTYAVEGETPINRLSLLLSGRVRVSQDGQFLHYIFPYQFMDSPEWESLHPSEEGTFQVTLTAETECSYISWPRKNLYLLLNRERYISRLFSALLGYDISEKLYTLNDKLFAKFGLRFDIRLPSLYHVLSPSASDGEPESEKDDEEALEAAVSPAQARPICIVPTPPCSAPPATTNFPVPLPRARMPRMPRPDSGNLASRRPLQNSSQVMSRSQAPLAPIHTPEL
Briefly: proximity ligation.

By UniProt entry, the sequences of proteins in these tests, tags left out.
UniProt Q9ES83: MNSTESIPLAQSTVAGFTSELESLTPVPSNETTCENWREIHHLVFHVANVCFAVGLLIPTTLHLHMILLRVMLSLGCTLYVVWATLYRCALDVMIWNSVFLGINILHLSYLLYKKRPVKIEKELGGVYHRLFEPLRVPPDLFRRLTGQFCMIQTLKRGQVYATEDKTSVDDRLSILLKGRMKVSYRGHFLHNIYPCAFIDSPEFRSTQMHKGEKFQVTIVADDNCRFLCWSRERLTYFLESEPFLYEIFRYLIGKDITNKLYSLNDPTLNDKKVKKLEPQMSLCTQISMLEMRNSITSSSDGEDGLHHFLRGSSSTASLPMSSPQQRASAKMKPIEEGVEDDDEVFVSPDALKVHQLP

The target in assay [1] is POPDC1-Myc (Popeye domain-containing protein 1, Myc-tagged) (mouse) (UniProt Q9ES83). Briefly: proximity ligation.
Assay [2] has as its target T2, AC9-VN / AC9-VC (AC9 with a half of Venus for BiFC), O60503.
T2 chain: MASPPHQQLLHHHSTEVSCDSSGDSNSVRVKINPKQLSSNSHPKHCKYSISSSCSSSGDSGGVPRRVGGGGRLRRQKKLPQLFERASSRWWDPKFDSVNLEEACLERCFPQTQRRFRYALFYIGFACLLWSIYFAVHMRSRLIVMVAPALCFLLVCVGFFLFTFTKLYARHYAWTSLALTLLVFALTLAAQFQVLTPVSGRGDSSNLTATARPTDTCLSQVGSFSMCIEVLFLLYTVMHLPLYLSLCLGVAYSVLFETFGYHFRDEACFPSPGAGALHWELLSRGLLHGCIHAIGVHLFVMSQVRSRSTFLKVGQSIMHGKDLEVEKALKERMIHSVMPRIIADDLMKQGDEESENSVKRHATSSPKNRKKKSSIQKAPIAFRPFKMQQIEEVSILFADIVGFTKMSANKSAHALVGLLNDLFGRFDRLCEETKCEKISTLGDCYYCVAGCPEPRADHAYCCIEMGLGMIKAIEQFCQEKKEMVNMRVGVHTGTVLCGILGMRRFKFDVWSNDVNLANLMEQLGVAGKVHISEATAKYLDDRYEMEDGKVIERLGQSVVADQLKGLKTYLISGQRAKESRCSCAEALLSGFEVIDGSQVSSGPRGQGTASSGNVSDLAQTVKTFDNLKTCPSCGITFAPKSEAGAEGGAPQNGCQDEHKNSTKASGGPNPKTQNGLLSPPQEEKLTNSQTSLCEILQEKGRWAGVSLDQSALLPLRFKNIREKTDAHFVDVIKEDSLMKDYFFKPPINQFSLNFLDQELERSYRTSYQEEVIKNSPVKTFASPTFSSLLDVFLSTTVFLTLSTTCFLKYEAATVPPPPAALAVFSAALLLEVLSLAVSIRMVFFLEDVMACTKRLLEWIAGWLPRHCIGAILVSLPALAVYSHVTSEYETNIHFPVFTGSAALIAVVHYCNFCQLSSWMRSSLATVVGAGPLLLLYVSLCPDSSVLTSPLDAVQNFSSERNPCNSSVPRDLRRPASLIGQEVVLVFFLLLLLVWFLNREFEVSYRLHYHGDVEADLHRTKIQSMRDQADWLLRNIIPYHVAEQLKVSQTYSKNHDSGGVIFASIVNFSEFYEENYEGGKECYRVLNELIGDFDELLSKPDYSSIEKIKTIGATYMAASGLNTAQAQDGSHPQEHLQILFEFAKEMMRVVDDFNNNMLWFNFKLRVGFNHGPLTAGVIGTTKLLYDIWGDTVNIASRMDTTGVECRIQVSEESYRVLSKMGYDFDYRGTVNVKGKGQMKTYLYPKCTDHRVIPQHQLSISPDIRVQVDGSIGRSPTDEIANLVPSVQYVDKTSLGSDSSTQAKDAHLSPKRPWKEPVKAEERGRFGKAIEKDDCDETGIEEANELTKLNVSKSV
Briefly: split reporter. The following applies: remark: other sources report otherwise.

These are yes or no findings as the source states them, for the method shown. Binding seen in cells or lysates may run through a third protein. Some binding calls cover weakened binding; strength is not graded here. For part of these data: Where a sequence is shown, tags or fusion partners need not be part of it.

B1: YFP-tagged AC9 (enzyme, UniProt O60503 1-1353)
chain: MASPPHQQLLHHHSTEVSCDSSGDSNSVRVKINPKQLSSNSHPKHCKYSISSSCSSSGDSGGVPRRVGGGGRLRRQKKLPQLFERASSRWWDPKFDSVNLEEACLERCFPQTQRRFRYALFYIGFACLLWSIYFAVHMRSRLIVMVAPALCFLLVCVGFFLFTFTKLYARHYAWTSLALTLLVFALTLAAQFQVLTPVSGRGDSSNLTATARPTDTCLSQVGSFSMCIEVLFLLYTVMHLPLYLSLCLGVAYSVLFETFGYHFRDEACFPSPGAGALHWELLSRGLLHGCIHAIGVHLFVMSQVRSRSTFLKVGQSIMHGKDLEVEKALKERMIHSVMPRIIADDLMKQGDEESENSVKRHATSSPKNRKKKSSIQKAPIAFRPFKMQQIEEVSILFADIVGFTKMSANKSAHALVGLLNDLFGRFDRLCEETKCEKISTLGDCYYCVAGCPEPRADHAYCCIEMGLGMIKAIEQFCQEKKEMVNMRVGVHTGTVLCGILGMRRFKFDVWSNDVNLANLMEQLGVAGKVHISEATAKYLDDRYEMEDGKVIERLGQSVVADQLKGLKTYLISGQRAKESRCSCAEALLSGFEVIDGSQVSSGPRGQGTASSGNVSDLAQTVKTFDNLKTCPSCGITFAPKSEAGAEGGAPQNGCQDEHKNSTKASGGPNPKTQNGLLSPPQEEKLTNSQTSLCEILQEKGRWAGVSLDQSALLPLRFKNIREKTDAHFVDVIKEDSLMKDYFFKPPINQFSLNFLDQELERSYRTSYQEEVIKNSPVKTFASPTFSSLLDVFLSTTVFLTLSTTCFLKYEAATVPPPPAALAVFSAALLLEVLSLAVSIRMVFFLEDVMACTKRLLEWIAGWLPRHCIGAILVSLPALAVYSHVTSEYETNIHFPVFTGSAALIAVVHYCNFCQLSSWMRSSLATVVGAGPLLLLYVSLCPDSSVLTSPLDAVQNFSSERNPCNSSVPRDLRRPASLIGQEVVLVFFLLLLLVWFLNREFEVSYRLHYHGDVEADLHRTKIQSMRDQADWLLRNIIPYHVAEQLKVSQTYSKNHDSGGVIFASIVNFSEFYEENYEGGKECYRVLNELIGDFDELLSKPDYSSIEKIKTIGATYMAASGLNTAQAQDGSHPQEHLQILFEFAKEMMRVVDDFNNNMLWFNFKLRVGFNHGPLTAGVIGTTKLLYDIWGDTVNIASRMDTTGVECRIQVSEESYRVLSKMGYDFDYRGTVNVKGKGQMKTYLYPKCTDHRVIPQHQLSISPDIRVQVDGSIGRSPTDEIANLVPSVQYVDKTSLGSDSSTQAKDAHLSPKRPWKEPVKAEERGRFGKAIEKDDCDETGIEEANELTKLNVSKSV
Take B1: the binding result (with POPDC2-Myc (mouse); in assay [1]) was “binds” each time.

B2: AC9-VN / AC9-VC (AC9 with a half of Venus for BiFC), O60503 1-1353 (enzyme)
chain: MASPPHQQLLHHHSTEVSCDSSGDSNSVRVKINPKQLSSNSHPKHCKYSISSSCSSSGDSGGVPRRVGGGGRLRRQKKLPQLFERASSRWWDPKFDSVNLEEACLERCFPQTQRRFRYALFYIGFACLLWSIYFAVHMRSRLIVMVAPALCFLLVCVGFFLFTFTKLYARHYAWTSLALTLLVFALTLAAQFQVLTPVSGRGDSSNLTATARPTDTCLSQVGSFSMCIEVLFLLYTVMHLPLYLSLCLGVAYSVLFETFGYHFRDEACFPSPGAGALHWELLSRGLLHGCIHAIGVHLFVMSQVRSRSTFLKVGQSIMHGKDLEVEKALKERMIHSVMPRIIADDLMKQGDEESENSVKRHATSSPKNRKKKSSIQKAPIAFRPFKMQQIEEVSILFADIVGFTKMSANKSAHALVGLLNDLFGRFDRLCEETKCEKISTLGDCYYCVAGCPEPRADHAYCCIEMGLGMIKAIEQFCQEKKEMVNMRVGVHTGTVLCGILGMRRFKFDVWSNDVNLANLMEQLGVAGKVHISEATAKYLDDRYEMEDGKVIERLGQSVVADQLKGLKTYLISGQRAKESRCSCAEALLSGFEVIDGSQVSSGPRGQGTASSGNVSDLAQTVKTFDNLKTCPSCGITFAPKSEAGAEGGAPQNGCQDEHKNSTKASGGPNPKTQNGLLSPPQEEKLTNSQTSLCEILQEKGRWAGVSLDQSALLPLRFKNIREKTDAHFVDVIKEDSLMKDYFFKPPINQFSLNFLDQELERSYRTSYQEEVIKNSPVKTFASPTFSSLLDVFLSTTVFLTLSTTCFLKYEAATVPPPPAALAVFSAALLLEVLSLAVSIRMVFFLEDVMACTKRLLEWIAGWLPRHCIGAILVSLPALAVYSHVTSEYETNIHFPVFTGSAALIAVVHYCNFCQLSSWMRSSLATVVGAGPLLLLYVSLCPDSSVLTSPLDAVQNFSSERNPCNSSVPRDLRRPASLIGQEVVLVFFLLLLLVWFLNREFEVSYRLHYHGDVEADLHRTKIQSMRDQADWLLRNIIPYHVAEQLKVSQTYSKNHDSGGVIFASIVNFSEFYEENYEGGKECYRVLNELIGDFDELLSKPDYSSIEKIKTIGATYMAASGLNTAQAQDGSHPQEHLQILFEFAKEMMRVVDDFNNNMLWFNFKLRVGFNHGPLTAGVIGTTKLLYDIWGDTVNIASRMDTTGVECRIQVSEESYRVLSKMGYDFDYRGTVNVKGKGQMKTYLYPKCTDHRVIPQHQLSISPDIRVQVDGSIGRSPTDEIANLVPSVQYVDKTSLGSDSSTQAKDAHLSPKRPWKEPVKAEERGRFGKAIEKDDCDETGIEEANELTKLNVSKSV
As for B2, the binding result in assay [2] was “binds”.

The values above are taken from article doi:10.1101/2021.12.21.473719.
